Data source: PubChem BioAssay AID504784 (Drosophila RNAi Screening Center, 2011)
The screen tested about 17,000 reagents; below is a random part of those with a known target gene and a result. 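Each column is one replicate's B-score; the combined score over replicates was not deposited, so single values may mislead.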 A plus sign joins genes that one reagent is predicted to hit. Further read-outs or replicates are left out here. No sequences are given here.

Test: 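Genome-wide knock-down for genes giving too much or too little stored lipid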 (primary screen)
Cell system: Drosophila Kc167 embryonic cells
Reagents: long dsRNA against Drosophila genes, about 250 ng dsRNA per well
Duration: 4 days
Treatment: cells fed 400 µM oleic acid bound to BSA
Measured: 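Cells imaged and segmented; ratio of lipid droplet area to nuclear area, log-transformed, then normalised as a B-score over the screen; higher means more stored lipid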
Scale: droplet/nuclear area B-score: higher = more stored lipid (overstorage)

With knock-down of Crg-1 [DRSC22882], the record shows droplet/nuclear area B-score, replicate 1 = 0.03.
CG10265 [DRSC05986] gave droplet/nuclear area B-score, replicate 1 = -0.281.
For CG10265 [DRSC21680], the values are droplet/nuclear area B-score, replicate 1 = -0.773.
After knock-down of Nt5c [DRSC06711], the screen gave droplet/nuclear area B-score, replicate 1 = 0.519.
Ubqn [DRSC19581] scored droplet/nuclear area B-score, replicate 1 = 1.92.
ATPsynB [DRSC09659] scored droplet/nuclear area B-score, replicate 1 = 4.18.
Eaat2 [DRSC00032] gave droplet/nuclear area B-score, replicate 1 = 0.929.
Silencing of Eaat2 [DRSC00749] gave: droplet/nuclear area B-score, replicate 1 = -0.636.
After knock-down of Galphao [DRSC07430] the results were droplet/nuclear area B-score, replicate 1 = -0.00919.
After knock-down of Arl6IP1 [DRSC14231], the screen gave droplet/nuclear area B-score, replicate 1 = -0.0285.
Knock-down of mldr [DRSC18100] gave: droplet/nuclear area B-score, replicate 1 = -0.00135.
After knock-down of CG5767 [DRSC06953] the results were droplet/nuclear area B-score, replicate 1 = -0.874.
After knock-down of fdl [DRSC07279], the record shows droplet/nuclear area B-score, replicate 1 = -0.376.
For CG8501 [DRSC07198] the deposit lists droplet/nuclear area B-score, replicate 1 = 0.219.
With knock-down of CG9399 [DRSC16488], the record shows droplet/nuclear area B-score, replicate 1 = -2.03.
Knock-down of r-l [DRSC17042] resulted in: droplet/nuclear area B-score, replicate 1 = 7.12.
For r-l [DRSC22784], the entry reads droplet/nuclear area B-score, replicate 1 = 0.856.
Lrp4 [DRSC20118] gave droplet/nuclear area B-score, replicate 1 = -1.88.
With knock-down of CG7728 [DRSC10907], the record shows droplet/nuclear area B-score, replicate 1 = 0.803.
Silencing of CG40006 [DRSC03787] gave: droplet/nuclear area B-score, replicate 1 = -2.22.
CG40006 [DRSC03809] gave droplet/nuclear area B-score, replicate 1 = -0.386.
After knock-down of CG40006 [DRSC03814], the record shows droplet/nuclear area B-score, replicate 1 = -0.0286.
CG40006 [DRSC03817] gave droplet/nuclear area B-score, replicate 1 = 0.894.
Knock-down of L2HGDH [DRSC02082] resulted in: droplet/nuclear area B-score, replicate 1 = 0.218.
CG5892 [DRSC15910] showed droplet/nuclear area B-score, replicate 1 = -1.46.
After knock-down of Bhmt [DRSC02079], the record shows droplet/nuclear area B-score, replicate 1 = -1.65.
Silencing of rdx [DRSC14526] came out at: droplet/nuclear area B-score, replicate 1 = 1.63.
Against rdx [DRSC16580] the deposit lists droplet/nuclear area B-score, replicate 1 = -0.796.
Against rdx [DRSC23120] the deposit lists droplet/nuclear area B-score, replicate 1 = 0.972.
Knock-down of bbx + waw [DRSC20575] resulted in: droplet/nuclear area B-score, replicate 1 = -1.33.
For bbx + waw [DRSC20589], the entry reads droplet/nuclear area B-score, replicate 1 = 2.71.
After knock-down of sqd [DRSC15160], the screen gave droplet/nuclear area B-score, replicate 1 = -0.00177.
Knock-down of CG6966 [DRSC16156] resulted in: droplet/nuclear area B-score, replicate 1 = -0.0212.
With knock-down of CG6650 [DRSC10685] the results were droplet/nuclear area B-score, replicate 1 = 0.896.
After knock-down of CG14855 [DRSC14979], the screen gave droplet/nuclear area B-score, replicate 1 = -0.11.
After knock-down of CG14135 [DRSC10140], the screen gave droplet/nuclear area B-score, replicate 1 = 0.484.
With knock-down of ND-B8 [DRSC00449] the results were droplet/nuclear area B-score, replicate 1 = -0.47.
With knock-down of yellow-b [DRSC03639], the record shows droplet/nuclear area B-score, replicate 1 = 0.954.
Against CG1628 [DRSC18109], the entry reads droplet/nuclear area B-score, replicate 1 = -0.295.
Knock-down of CG15198 [DRSC19645] came out at: droplet/nuclear area B-score, replicate 1 = 0.562.
Knock-down of CG5162 [DRSC19935] came out at: droplet/nuclear area B-score, replicate 1 = -0.123.
For Psc [DRSC07518] the deposit lists droplet/nuclear area B-score, replicate 1 = 1.26.
CG4168 [DRSC01447] scored droplet/nuclear area B-score, replicate 1 = 0.0363.
After knock-down of CG4168 [DRSC01933], the screen gave droplet/nuclear area B-score, replicate 1 = -1.6.
For CG4168 [DRSC21319], the entry reads droplet/nuclear area B-score, replicate 1 = 0.388.
For CG4168 [DRSC22789], the entry reads droplet/nuclear area B-score, replicate 1 = -1.14.
For Kap3 [DRSC19426], the values are droplet/nuclear area B-score, replicate 1 = 0.916.
With knock-down of PAN2 [DRSC07115] the results were droplet/nuclear area B-score, replicate 1 = 0.00861.
With knock-down of Prosbeta2 [DRSC11257], the record shows droplet/nuclear area B-score, replicate 1 = -3.45.
With knock-down of PSMG1 [DRSC12297] the results were droplet/nuclear area B-score, replicate 1 = -0.092.
With knock-down of Trpm [DRSC06629], the record shows droplet/nuclear area B-score, replicate 1 = 0.553.
With knock-down of Trpm [DRSC21566], the record shows droplet/nuclear area B-score, replicate 1 = 0.0474.

Individual results from above:
Crg-1 [DRSC22882], droplet/nuclear area B-score, replicate 1 = 0.03
For “droplet/nuclear area B-score, replicate 1”, CG40006 [DRSC03787] shows -2.22
Entry for CG4168 [DRSC01447] under “droplet/nuclear area B-score, replicate 1”: 0.0363
For “droplet/nuclear area B-score, replicate 1”, yellow-b [DRSC03639] shows 0.954
For “droplet/nuclear area B-score, replicate 1”, Prosbeta2 [DRSC11257] is entered as -3.45
Under “droplet/nuclear area B-score, replicate 1”, CG10265 [DRSC21680] has -0.773
